Measured values taken from US12290616B2, “Multi-layered polymer film for sustained release of agents” (Foundry Therapeutics, Inc., priority 2015, dated 2025).
At least one structure is not confirmed: it was looked up by name or label, or the drawing left a doubt.

Test: Continuous drug elution testing of film in PBS buffer, HPLC (cumulative release)
Type: physicochemical
Settings: 2 cm×2 cm film in 4 mL PBS, 37° C.; drug density 0.05 mg to 0.1 mg/cm^2; FIGS. 5A-5B

## CN(C)c1ccc(O)c2c1C[C@H]1C[C@H]3[C@H](N(C)C)C(O)=C(C(N)=O)C(=O)[C@@]3(O)C(O)=C1C2=O [minocycline]
  cumulative release profile of antibiotic from film: releases much faster
